Measurements taken from patent US11324237B2, “Tasteful natural sweetener and flavor” (EPC Natural Products Co., Ltd., priority 2018, dated 2022).

Test: Sensory evaluation (odor, color, taste) of Maillard model reactions in glycerol, buffer or dry conditions
Format: in vivo, human
Set-up: key: +: slight; ++: moderate; +++: very strong
Details: Example 5; 1 ml water + 9 ml Glycerin, 2.0 h, 120° C.

N[C@@H](Cc1ccccc1)C(=O)O [0.1 mMol Phe]
Intensity of Smell: +
